According to patent publication US11787781B2, “Inhibiting ataxia telangiectasia and RAD3-related protein (ATR)” (Celator Pharmaceuticals, Inc., priority 2016, dated 2023):
At least one compound was matched to its structure with a doubt left.

Chains of the proteins cited; added tags and fusions are not shown. Lines headed by an entry give the natural chain unless they say otherwise; changes in a name come on top.
UniProt Q13535: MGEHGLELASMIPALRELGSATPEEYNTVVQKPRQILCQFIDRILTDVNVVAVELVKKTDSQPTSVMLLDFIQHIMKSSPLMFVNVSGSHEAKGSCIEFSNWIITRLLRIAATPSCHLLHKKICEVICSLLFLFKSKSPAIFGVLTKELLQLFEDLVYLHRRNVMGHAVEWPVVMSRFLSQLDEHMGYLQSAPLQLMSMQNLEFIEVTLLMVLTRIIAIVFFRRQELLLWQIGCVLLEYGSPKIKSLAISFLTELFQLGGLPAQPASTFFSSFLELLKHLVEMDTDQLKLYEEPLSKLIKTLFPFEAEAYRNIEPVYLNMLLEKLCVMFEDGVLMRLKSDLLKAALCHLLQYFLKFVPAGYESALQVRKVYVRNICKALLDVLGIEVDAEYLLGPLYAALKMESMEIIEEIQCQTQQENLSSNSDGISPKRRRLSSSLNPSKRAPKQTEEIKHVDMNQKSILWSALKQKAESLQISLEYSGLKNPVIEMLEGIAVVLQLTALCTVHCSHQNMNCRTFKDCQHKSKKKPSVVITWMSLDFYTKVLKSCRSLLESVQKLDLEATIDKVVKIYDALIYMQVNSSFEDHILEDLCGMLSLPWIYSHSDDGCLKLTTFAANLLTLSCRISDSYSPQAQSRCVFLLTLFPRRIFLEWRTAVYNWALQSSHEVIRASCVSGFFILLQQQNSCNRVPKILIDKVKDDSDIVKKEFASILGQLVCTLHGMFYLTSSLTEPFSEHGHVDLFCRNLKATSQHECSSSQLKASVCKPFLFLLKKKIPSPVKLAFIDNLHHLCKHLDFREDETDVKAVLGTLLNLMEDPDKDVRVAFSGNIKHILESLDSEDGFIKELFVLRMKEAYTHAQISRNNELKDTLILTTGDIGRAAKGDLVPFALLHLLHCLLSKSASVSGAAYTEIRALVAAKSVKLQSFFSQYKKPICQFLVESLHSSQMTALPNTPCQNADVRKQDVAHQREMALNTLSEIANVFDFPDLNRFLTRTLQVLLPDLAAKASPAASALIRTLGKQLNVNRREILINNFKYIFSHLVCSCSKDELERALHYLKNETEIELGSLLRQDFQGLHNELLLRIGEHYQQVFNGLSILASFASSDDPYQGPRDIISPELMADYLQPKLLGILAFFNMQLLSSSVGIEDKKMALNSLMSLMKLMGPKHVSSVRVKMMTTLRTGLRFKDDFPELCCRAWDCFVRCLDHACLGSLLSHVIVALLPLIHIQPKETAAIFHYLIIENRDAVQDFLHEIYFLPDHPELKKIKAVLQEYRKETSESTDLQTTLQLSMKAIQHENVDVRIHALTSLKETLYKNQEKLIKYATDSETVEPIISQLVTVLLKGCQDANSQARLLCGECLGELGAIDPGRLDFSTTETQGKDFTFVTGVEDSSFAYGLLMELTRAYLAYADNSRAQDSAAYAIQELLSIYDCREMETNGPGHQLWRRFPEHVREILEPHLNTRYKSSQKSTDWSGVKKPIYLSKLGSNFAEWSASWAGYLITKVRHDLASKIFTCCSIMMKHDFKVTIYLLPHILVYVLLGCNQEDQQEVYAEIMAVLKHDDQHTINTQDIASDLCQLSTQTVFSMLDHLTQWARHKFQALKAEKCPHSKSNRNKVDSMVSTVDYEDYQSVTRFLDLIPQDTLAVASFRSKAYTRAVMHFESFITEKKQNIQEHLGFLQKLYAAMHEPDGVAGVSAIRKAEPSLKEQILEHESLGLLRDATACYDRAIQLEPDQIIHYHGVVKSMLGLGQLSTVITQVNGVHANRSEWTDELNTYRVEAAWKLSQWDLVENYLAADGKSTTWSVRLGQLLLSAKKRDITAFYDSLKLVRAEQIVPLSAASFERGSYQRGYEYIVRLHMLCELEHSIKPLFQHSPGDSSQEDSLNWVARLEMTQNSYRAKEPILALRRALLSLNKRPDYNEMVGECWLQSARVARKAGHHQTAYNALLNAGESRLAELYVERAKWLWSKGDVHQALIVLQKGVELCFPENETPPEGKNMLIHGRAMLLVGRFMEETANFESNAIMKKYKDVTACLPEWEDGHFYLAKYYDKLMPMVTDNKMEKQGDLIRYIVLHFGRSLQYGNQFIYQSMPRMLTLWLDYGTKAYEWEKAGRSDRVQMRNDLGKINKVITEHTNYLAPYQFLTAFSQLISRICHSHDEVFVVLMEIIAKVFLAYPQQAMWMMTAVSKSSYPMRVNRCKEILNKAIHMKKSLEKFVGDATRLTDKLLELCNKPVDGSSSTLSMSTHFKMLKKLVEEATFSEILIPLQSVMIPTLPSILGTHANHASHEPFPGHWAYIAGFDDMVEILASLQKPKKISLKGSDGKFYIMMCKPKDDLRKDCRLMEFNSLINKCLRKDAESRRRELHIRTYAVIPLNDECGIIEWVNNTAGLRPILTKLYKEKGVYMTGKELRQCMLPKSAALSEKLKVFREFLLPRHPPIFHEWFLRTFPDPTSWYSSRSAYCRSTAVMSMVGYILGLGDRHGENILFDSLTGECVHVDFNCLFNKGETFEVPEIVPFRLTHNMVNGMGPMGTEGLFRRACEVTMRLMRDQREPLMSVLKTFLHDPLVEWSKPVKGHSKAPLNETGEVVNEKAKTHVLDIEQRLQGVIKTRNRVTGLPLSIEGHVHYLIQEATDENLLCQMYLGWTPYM

Target: ATR/ATRIP(h) (Homo sapiens (Human), UniProt Q13535)
Assay: Eurofins ATR/ATRIP HTRF assay, p53 Ser15 phosphorylation
Type: biochemical
Parameters: key to Top / Bottom: % of DMSO positive control activity
Conditions: ATP 10 μM
Procedure: An EC50 determination was conducted for the supplied set of compounds against the kinase ATR/ATRIP(h), using a linear enzyme concentration in the Eurofins ATR/ATRIP HTRF assay using GST tagged full length p53 as the substrate.
ATR/ATRIP phosphorylation of p53 on Ser15 was measured via formation of an energy transfer complex consisting of a Europium-labelled anti-phospho Ser15 p53 antibody and an anti-GST-d2 antibody. All data points were performed in duplicate with DMSO controls and EDTA blanks.
ATR/ATRIP(h) was pre-diluted in 25 mM HEPES pH 8.0, 0.01% Brij-35, 1% Glycerol, 5 mM DTT, 1 mg/mL BSA and assayed in 25 mM HEPES pH 8.0, 0.01% Brij-35, 1% Glycerol, 10 mM MnCl2 using 30 nM GST, cMyc p53-(hu,FL) as the substrate. The reaction was initiated with the addition of ATP to a final concentration of 10 μM.
The individual replicates were expressed in terms of the % of the DMSO positive control activity. The mean activity (% control) of each inhibitor concentration was plotted against the inhibitor concentration, and EC50 values were determined using […] PRISM.
The data expressed as % control activity were plotted against inhibitor concentration, and fitted to a four parameter logistic using […] PRISM. Graphs for each compound are shown alongside the data in the accompanying Excel report.

[1] = four parameter logistic fit of % control activity

Structure (SMILES): CN(C)CCNS(=O)(=O)c1ccc(-c2cnc(N)c(C(=O)Nc3ccccc3)n2)cc1 [Compound 4, 3-amino-6-(4-(((2-(dimethylamino)ethyl)-λ^2-azanyl)sulfonyl)phenyl)-N-phenylpyrazine-2-carboxamide]
- Hill (four parameter logistic fit): −0.860
- Bottom [1]: 1
- Top [1]: 97
